Values from PubChem BioAssay AID1259425 (University of Nebraska Medical Center, 2018).
The deposit covers about 14,000 reagents; below is a part drawn at random. Further read-outs or replicates are left out here. No sequences are given here. Not given: the time to read-out.

Screen: 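Find knockdowns that reproduce the gene expression pattern seen when KSR1 is lost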 (primary screen)
System: HCT116 human colon cancer cells
Knock-down reagent: siRNA pool against human genes, 50 nM siRNA
Measurement: 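mRNA of six signature genes measured together by branched-DNA assay after 50 nM siRNA pool, blank removed, divided by geometric mean of two housekeeping genes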
Scale: BNIP3L mRNA: higher = more BNIP3L transcript after knockdown

| gene knocked down | PubChem SID | BNIP3L mRNA, set 1 |
| --- | --- | --- |
| MBD1 (GeneID 4152) | SID363993564 | 0.0734 |
| ZWINT (GeneID 11130) | SID363997788 | 0.0842 |
| DZANK1 (GeneID 55184) | SID364000828 | 0.14 |
| GAGE2C (GeneID 2574) | SID363992733 | 0.146 |
| VPS51 (GeneID 738) | SID363998389 | 0.112 |
| CD200R1 (GeneID 131450) | SID364004579 | 0.112 |
| BOP1 (GeneID 23246) | SID363999361 | 0.238 |
| SOX17 (GeneID 64321) | SID364002441 | 0.0959 |
| LYSET (GeneID 26175) | SID364005247 | 0.184 |
| RRP12 (GeneID 23223) | SID363999348 | 0.0983 |
| PRICKLE3 (GeneID 4007) | SID363996980 | 0.174 |
| SHBG (GeneID 6462) | SID363992337 | 0.0992 |
| RAB5B (GeneID 5869) | SID363994024 | 0.124 |
| AGT (GeneID 183) | SID363991368 | 0.044 |
| SMR3B (GeneID 10879) | SID363997468 | 0.438 |
| NKX3-2 (GeneID 579) | SID363992479 | 0.173 |
| CCDC85B (GeneID 11007) | SID363997612 | 0.147 |
| MAEA (GeneID 10296) | SID363996754 | 0.0696 |
| FAM86C1P (GeneID 55199) | SID364000844 | 0.119 |
| KATNA1 (GeneID 11104) | SID363997775 | 0.11 |
| ZNF629 (GeneID 23361) | SID364005079 | 0.152 |
| PLP2 (GeneID 5355) | SID363993836 | 0.198 |
| GIPR (GeneID 2696) | SID363991500 | 0.174 |
| MFN2 (GeneID 9927) | SID363999162 | 0.102 |
| PCDHGB2 (GeneID 56103) | SID364001250 | 0.0633 |
| SP100 (GeneID 6672) | SID363994254 | 0.0851 |
| SCYL3 (GeneID 57147) | SID364001685 | 0.056 |
| ETS2 (GeneID 2114) | SID363996160 | 0.11 |
| PRM2 (GeneID 5620) | SID363993920 | 1.5 |
| TYRO3 (GeneID 7301) | SID363997115 | 0.196 |
| COL20A1 (GeneID 57642) | SID364001881 | 0.238 |
| KHDC1 (GeneID 80759) | SID364003360 | 0.139 |
| CNIH1 (GeneID 10175) | SID363996656 | 0.118 |
| LARS2 (GeneID 23395) | SID363999426 | 0.116 |
| EIF3A (GeneID 8661) | SID363994817 | 0.0373 |
| TUBGCP4 (GeneID 27229) | SID363998859 | 0.0962 |
| ANKHD1 (GeneID 54882) | SID364000494 | 0.139 |
| C5AR1 (GeneID 728) | SID363992957 | 0.0973 |
| MED14 (GeneID 9282) | SID363995228 | 0.126 |
| PLS3 (GeneID 5358) | SID363995971 | 0.11 |
| NPAT (GeneID 4863) | SID363993691 | 0.142 |
| HMG20A (GeneID 10363) | SID364000870 | 0.0786 |
| ADAM3A (GeneID 1587) | SID364005024 | 0.0589 |
| IFNGR1 (GeneID 3459) | SID363991747 | 0.0742 |
| RAB5A (GeneID 5868) | SID363995166 | 0.0991 |
| OSCAR (GeneID 126014) | SID364004518 | 0.054 |
| TCF25 (GeneID 22980) | SID363999234 | 0.268 |
| SCTR (GeneID 6344) | SID363994131 | 0.286 |
| GORASP1 (GeneID 64689) | SID364003685 | 0.061 |
| ETFDH (GeneID 2110) | SID363995435 | 0.0836 |

Quoted from the listing (3 entries):
| gene knocked down | PubChem SID | BNIP3L mRNA, set 1 |
| --- | --- | --- |
| HMG20A (GeneID 10363) | SID364000870 | 0.0786 |
| ADAM3A (GeneID 1587) | SID364005024 | 0.0589 |
| IFNGR1 (GeneID 3459) | SID363991747 | 0.0742 |
